According to article PMC7755780, “Tetrachloroethene respiration in Sulfurospirillum species is regulated by a two‐component system as unraveled by comparative genomics, transcriptomics, and regulator binding studies”:
For at least one entry, the source does not settle the construct or the ends of the probe. No signal at the amounts used counts as a negative.

Biological target: RR2 (PceP), OmpR-family response regulator of TCS2 (UniProt A0A1D7TJV3)
Test: EMSA
Details: EMSA: 10 mM HEPES pH 7.6, 2 mM MgCl2, 200 mM KCl, 0.1 mM EDTA, 5 mM DTT, 10% glycerol, 50 ug/ul Ficoll 70, 250 ng poly(dI/dC), 2.5 pmol DNA in 15 ul; recombinant protein; protein details: Twin-Strep; label: 6-FAM (T982); probe letters rebuilt from the primers and the genome

GCCTTTAGTTCCAGATAAGCCTATCGACTTTGGAGTAACAGAATTTTGTGAAACATGTAAAAAATGTGCACGTGAGTGTCCTTCAAAAGCAATTACTGAAGGTCCAAGAACTTTTGAAGGACGAAGTATTCATAATCAATCAGGTAAATTACAGTGGCAAAATGACTATAATAAATGCTTAGGTTATTGGCCGGAATCTGGTGGATATTGTGGCGGGCC (double strand) [pceA structural gene fragment]
binding result: no binding
